PubChem BioAssay AID504808 | Drosophila RNAi Screening Center, 2011
In all, the deposit lists about 21,000 reagents; this is a random part of those with a known target gene and a result. Of all reagents, 18 (0.084%) are marked active. 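Raw counts without plate normalisation, one of two replicates; the ratio scores behind the calls were not deposited.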 A plus sign joins genes that one reagent is predicted to hit. Not stated in the record: the amount of reagent, the time to read-out.

Purpose: 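Fly genes required to hold E2F transcription in check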 (primary screen)
System: Drosophila S2 cells
Knock-down reagent: long dsRNA against Drosophila genes
Read-out: 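Firefly luciferase driven by E2F sites, normalised to Renilla luciferase on the same minimal promoter, measured by plate reader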
Direction: E2F firefly: higher = more E2F reporter activity; Renilla normaliser: higher = more normaliser reporter signal
Active means: 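Called active if the normalised E2F reporter went up by over 50%; the cutoff is arbitrary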

target gene | dsRNA | E2F firefly, rep 1 | Renilla normaliser, rep 1 | call
Yp1 (Yolk protein 1) | DRSC18731 | 1.14e5 | 5973 | inactive
CG11403 | DRSC18532 | 2110 | 804 | inactive
CG31673 | DRSC03207 | 76037 | 3292 | inactive
Rcd1 (Reduction in Cnn dots 1) | DRSC07116 | 3789 | 242 | inactive
CREG (Cellular Repressor of E1A-stimulated Genes) | DRSC16595 | 1.27e5 | 6641 | inactive
CG1889 | DRSC18195 | 7721 | 720 | inactive
CG18581 | DRSC10324 | 1.60e5 | 8017 | inactive
CG10862 | DRSC08170 | 97686 | 3913 | inactive
CG3009 | DRSC18263 | 8449 | 668 | inactive
CG18190 | DRSC06714 | 1.45e5 | 4752 | inactive
CG4151 | DRSC18351 | 1.24e5 | 5213 | inactive
CG13228 | DRSC06348 | 92377 | 3860 | inactive
CG6067 | DRSC18399 | 1.03e5 | 6120 | inactive
CG15912 | DRSC18105 | 51247 | 3927 | inactive
CG14636 | DRSC12223 | 1.36e5 | 7273 | inactive
CG8243 | DRSC07122 | 1.52e5 | 4606 | inactive
CG13157 | DRSC06282 | 1.05e5 | 4900 | inactive
sowi (solwind) | DRSC12558 | 1.26e5 | 6897 | inactive
CG31156 | DRSC15753 | 67751 | 3645 | inactive
CG31156 | DRSC15755 | 1.07e5 | 7282 | inactive
mRpL47 (mitochondrial ribosomal protein L47) | DRSC16827 | 1.16e5 | 6534 | inactive
CG8854 | DRSC07288 | 2743 | 214 | inactive
GstE7 (Glutathione S transferase E7) | DRSC06677 | 77865 | 3341 | inactive
CG42539 (retired record) | DRSC13691 | 80761 | 2832 | inactive
homer | DRSC03547 | 92819 | 3520 | inactive
CG34238 | DRSC09040 | 1.31e5 | 4715 | inactive
CG6106 | DRSC19971 | 1.54e5 | 6816 | inactive
Pi3K59F (Phosphatidylinositol 3-kinase 59F) | DRSC04640 | 85519 | 3717 | inactive
CG1663 | DRSC06613 | 1.58e5 | 4885 | inactive
CG32642 | DRSC18959 | 86264 | 2667 | inactive
Apt1 (Acyl-protein thioesterase 1) | DRSC10348 | 1.16e5 | 6124 | inactive
CG6638 | DRSC10680 | 1.00e5 | 4037 | inactive
Targ (Tarag) | DRSC06206 | 1.05e5 | 4826 | inactive
CG6051 | DRSC15956 | 1484 | 784 | inactive
Fkbp12 (FK506-binding protein 12kD) | DRSC07425 | 1.31e5 | 5570 | inactive
Or85d (Odorant receptor 85d) | DRSC16767 | 1.43e5 | 6908 | inactive
CG2964 | DRSC00554 | 1.54e5 | 150 | inactive
wapl (wings apart-like) | DRSC18851 | 1722 | 808 | inactive
Ubx (Ultrabithorax) | DRSC16891 | 1.27e5 | 7254 | inactive
CG12643 | DRSC17849 | 1.30e5 | 6278 | inactive
eIF4G1 (eukaryotic translation initiation factor 4G1) | DRSC17218 | 2994 | 952 | inactive
Jon25Bi (Jonah 25Bi) | DRSC03434 | 1.44e5 | 5071 | inactive
alpha-Spec (alpha Spectrin) | DRSC08704 | 70463 | 3290 | inactive
Blm (Bloom syndrome helicase) | DRSC16911 | 79579 | 3146 | inactive
side-IV + CG17025 (retired record) | DRSC15168 | 1.13e5 | 5994 | inactive
SmydA-7 (SET and MYND domain containing, arthropod-specific, member 7) | DRSC07340 | 71788 | 3356 | inactive
Cib2 (Calcium and integrin binding family member 2) | DRSC04535 | 1.08e5 | 4167 | inactive
Nt5a (5' nucleotidase A) | DRSC08561 | 78063 | 3447 | inactive
CG17601 | DRSC20639 | 1.30e5 | 7110 | inactive
mRpL48 (mitochondrial ribosomal protein L48) | DRSC00506 | 1.71e5 | 5893 | inactive
CG30001 | DRSC05191 | 1.47e5 | 6812 | inactive
Rtnl1 (Reticulon-like1) | DRSC00851 | 1.32e5 | 6100 | inactive
Rtnl1 (Reticulon-like1) | DRSC02684 | 86538 | 3382 | inactive
Rtnl1 (Reticulon-like1) | DRSC03122 | 90904 | 3920 | inactive
kri (krishah) | DRSC10515 | 78058 | 3534 | inactive
Cyp313a2 (Cytochrome P450 313a2) | DRSC16625 | 1.58e5 | 6525 | inactive
l(2)SH0834 (lethal (2) SH0834) | DRSC02854 | 1.25e5 | 5711 | inactive
Ssadh (Succinic semialdehyde dehydrogenase) | DRSC15621 | 1932 | 1072 | inactive
CG42656 | DRSC12472 | 71155 | 4152 | inactive
GCS1 (Glucosidase 1) | DRSC19744 | 7623 | 728 | inactive
CG43163 | DRSC10745 | 96023 | 4101 | inactive
CG43163 | DRSC10748 | 96520 | 4442 | inactive
htk (hat-trick) | DRSC20029 | 1.05e5 | 5148 | inactive
htk (hat-trick) | DRSC20031 | 1.52e5 | 5465 | inactive
CG12994 | DRSC19192 | 82916 | 3299 | inactive
CG12994 | DRSC19514 | 1.13e5 | 4655 | inactive
Jon66Ci (Jonah 66Ci) | DRSC10772 | 99112 | 3976 | inactive
Tpi (Triose phosphate isomerase) | DRSC16888 | 2142 | 944 | inactive
Br140 (Bromodomain-containing protein, 140kD) | DRSC06755 | 92136 | 3489 | inactive
spoon (spoonbill) | DRSC18299 | 7985 | 696 | inactive
CG31278 | DRSC16051 | 1.34e5 | 6235 | inactive
CG11788 | DRSC06084 | 1.37e5 | 4828 | inactive
Arts + Apl | DRSC10349 | 1.78e5 | 8759 | inactive
eve (even skipped) | DRSC07614 | 1.39e5 | 5052 | inactive
CG12923 | DRSC06237 | 1.55e5 | 4896 | inactive
PNKP (Polynucleotide kinase 3'-phosphatase) | DRSC16512 | 1.46e5 | 6532 | inactive
LSm3 (Like Sm 3) | DRSC15920 | 1.17e5 | 6269 | inactive
CG15695 | DRSC15117 | 1.35e5 | 7459 | inactive
CG32944 | DRSC12138 | 1.39e5 | 6698 | inactive
CG32944 | DRSC12341 | 1.30e5 | 5964 | inactive
l(1)G0469 (lethal (1) G0469) | DRSC19412 | 7203 | 712 | inactive
l(1)G0469 (lethal (1) G0469) | DRSC19462 | 1.49e5 | 6319 | inactive
CG31926 | DRSC00295 | 1.69e5 | 5484 | inactive
CG11828 | DRSC14394 | 1.18e5 | 6516 | inactive
CG10602 | DRSC02075 | 78296 | 4206 | inactive
CG7606 | DRSC13246 | 89343 | 2626 | inactive
CG7606 | DRSC16268 | 95728 | 4792 | inactive
CG14275 | DRSC02379 | 1.39e5 | 4853 | inactive
CG40485 | DRSC20624 | 1.19e5 | 6385 | inactive
CG11125 | DRSC06042 | 1.27e5 | 4704 | inactive
Cpr65Az (Cuticular protein 65Az) | DRSC09882 | 1.14e5 | 4002 | inactive
icln | DRSC07630 | 1.44e5 | 5021 | inactive
CG18234 | DRSC10309 | 1.78e5 | 7566 | inactive
CG9164 | DRSC19087 | 92710 | 2876 | inactive
CG9164 | DRSC20162 | 7983 | 712 | inactive
CG4820 | DRSC15654 | 1.46e5 | 6137 | inactive
BubR1 (Bub1-related kinase) | DRSC04838 | 82021 | 4661 | inactive
CG14903 | DRSC15024 | 1.10e5 | 5573 | inactive
CG17287 | DRSC06659 | 1.61e5 | 5033 | inactive
Samtor (S-adenosylmethionine sensor upstream of TORC1) | DRSC04390 | 84342 | 2906 | inactive
Sox21a | DRSC10819 | 1.66e5 | 7497 | inactive
CG1299 | DRSC08300 | 99833 | 4082 | inactive
pall (pallbearer) | DRSC10364 | 79662 | 3810 | inactive
CG32971 | DRSC01372 | 1.30e5 | 5199 | inactive
Spf30 (Splicing factor 30) | DRSC11976 | 1.22e5 | 7014 | inactive
CG4768 | DRSC19917 | 1.87e5 | 6307 | inactive
CG32638 | DRSC18968 | 91545 | 2882 | inactive
